From PubChem BioAssay AID330 (DTP/NCI, 2004) come the findings set out here.

Each structure is given as a SMILES string. The list is a part of this screen's results and no random one: it gathers tests that were run many times, whatever their T/C, doses with no T/C, and many T/C values between a quarter and a half above the control. Further doses and runs are listed elsewhere. T/C gives the treated animals as a percentage of the vehicle group. Some doses have a count of surviving animals in place of a T/C: the source files T/C as zero there, which appears to mark a toxic dose or a test without result, not a measured value. Some survivor counts are full or nearly so, which does not show that the dose was tolerated: the source hardly ever lists a survival T/C far under the control, and the zero likely stands for such cases as well. Counts of survivors are from the toxicity check (mostly the fifth day) where no day follows; animals may have died later. Schedules are NCI's codes, taken here to give the interval after Q, in days (D) or hours (H), and the number of doses after X. Some entries hold several experiments; their values stand side by side, smallest first. Where survival is the endpoint, the PubChem record calls one and a half times the control and up active, and a quarter to a half above the control has no call in these data; cut-offs in other NCI protocols can differ. Marks such as (2×) give the number of equal values in this list. Some T/C values carry the count of animals alive at the toxicity check (mostly the fifth day); where none is given, no animal had died by that day.

This test deals with P388 leukemia ip, CD2F1 mice, survival T/C. Kind of test: NCI In Vivo Anticancer Drug Screen. Data for tumor model P388 Leukemia (intraperitoneal) in CD2F1 (CDF1) mice. The note with it: T/C endpoint: median survival time, higher T/C = longer survival.
Setting [1] is: dose: 4.5 mg/kg/injection, schedule: Q01DX009 (ip), vehicle: water.
The mark [2] stands for this setting: dose: 200.0 mg/kg/injection, schedule: Q01DX009 (ip), vehicle: saline with Tween-80.

As for `C1CCC2C[N-]CCC2C1.C1CCC2C[N-]CCC2C1.C1CCC2C[N-]CCC2C1.C1CCC2C[N-]CCC2C1.[Cl][Rh][Cl]` (stereo not given), the T/C (dose: 1.0 mg/kg/injection, schedule: Q01DX009 (ip), vehicle: saline) is 130 % of control; the T/C (dose: 1.0 mg/kg/injection, schedule: Q03HX024 (ip), vehicle: saline) was 131 % of control; the T/C (dose: 1.3 mg/kg/injection, schedule: Q01DX009 (ip), vehicle: water) was 134 % of control; the T/C (dose: 2.0 mg/kg/injection, schedule: Q01DX009 (ip), vehicle: saline) is 141 % of control [9 of 10 alive]; the T/C (dose: 2.0 mg/kg/injection, schedule: Q01DX009 (ip), vehicle: water) is 132 and 138 % of control; the T/C (dose: 2.0 mg/kg/injection, schedule: Q03HX024 (ip), vehicle: saline) is 136 % of control. Moreover, the T/C runs as follows: (dose: 3.0 mg/kg/injection, schedule: Q01DX009 (ip), vehicle: water) 137 % of control; (dose: 4.0 mg/kg/injection, schedule: Q01DX009 (ip), vehicle: saline) 140 % of control; under setting [1], 132 % of control [5 of 6 alive]; (dose: 8.0 mg/kg/injection, schedule: Q01DX001 (ip), vehicle: saline) 128 % of control; (dose: 8.0 mg/kg/injection, schedule: Q01DX009 (ip), vehicle: saline) 140 % of control; (dose: 8.0 mg/kg/injection, schedule: Q04DX003 (ip), vehicle: saline) 131 % of control. Further, the T/C (dose: 16.0 mg/kg/injection, schedule: Q01DX001 (ip), vehicle: saline) is 138 % of control; the T/C (dose: 16.0 mg/kg/injection, schedule: Q04DX003 (ip), vehicle: saline) was 141 % of control; the T/C (dose: 16.0 mg/kg/injection, schedule: Q08DX002 (ip), vehicle: saline) is 144 % of control; the T/C (dose: 32.0 mg/kg/injection, schedule: Q01DX001 (ip), vehicle: saline) was 127 % of control; the T/C (dose: 32.0 mg/kg/injection, schedule: Q08DX002 (ip), vehicle: saline) is 131 % of control. In addition, the survivor count is, setting by setting: (dose: 2.0 mg/kg/injection, schedule: Q03HX016 (ip), vehicle: saline) 5 of 10; (dose: 4.0 mg/kg/injection, schedule: Q03HX008 (ip), vehicle: saline) 7 of 10; under setting [1], 6 of 6; (dose: 6.7 mg/kg/injection, schedule: Q01DX009 (ip), vehicle: water) 1 of 6 and 3 of 6.
Regarding `CN=C(N)N/N=C(\C)c1ccc2c(c1)Cc1cc(Br)ccc1-2`, the survivor count (dose: 100.0 mg/kg/injection, schedule: Q04DX002 (ip), vehicle: saline with Tween-80) is listed as 1 of 6.
As for `O/N=C/c1cccc(O)c1O`, the T/C (dose: 200.0 mg/kg/injection, schedule: Q01DX005 (ip), vehicle: saline with Tween-80) was 125 % of control.
`CC(/C=C/c1ccc(C)cc1)=N\NC(N)=S`: the survivor count is, setting by setting: (dose: 12.0 mg/kg/injection, schedule: Q01DX005 (ip), vehicle: saline) 0 of 6; (dose: 25.0 mg/kg/injection, schedule: Q01DX005 (ip), vehicle: saline) 0 of 6; (dose: 50.0 mg/kg/injection, schedule: Q01DX005 (ip), vehicle: Klucel + Tween-80) 2 of 6; (dose: 100.0 mg/kg/injection, schedule: Q01DX005 (ip), vehicle: Klucel + Tween-80) 0 of 6; (dose: 200.0 mg/kg/injection, schedule: Q01DX005 (ip), vehicle: Klucel + Tween-80) 0 of 6.
As for `O=C(Nc1ccccc1C(=O)O)c1cc([N+](=O)[O-])cc([N+](=O)[O-])c1`, the T/C under setting [2] was 126 % of control [4 of 6 alive].
Take `CCC1(CCC(=O)OC)CCC[N+]2=C1c1[nH]c3ccc(Br)cc3c1CC2` (stereo not given): the survivor count by setting is: (dose: 100.0 mg/kg/injection, schedule: Q01DX005 (ip), vehicle: saline) 0 of 6; (dose: 200.0 mg/kg/injection, schedule: Q01DX005 (ip), vehicle: saline) 0 of 6.
Take `Cc1c2oc3c(C)ccc(C(=O)NC4C(=O)NC(C(C)C)C(=O)N5CCCC5C(=O)N(C)CC(=O)N(C)C(C(C)C)C(=O)OC4C)c3nc-2c(C(=O)NC2C(=O)NC(C(C)C)C(=O)N3CCCC3C(=O)N(C)CC(=O)N(C)C(C(C)C)C(=O)OC2C)c(N)c1=O` (stereo not given): the T/C is 145 % of control (dose: 0.05 mg/kg/injection, schedule: Q01DX009 (ip), vehicle: distilled water + Tween-80); 141 % of control (dose: 0.05 mg/kg/injection, schedule: Q01DX009 (ip), vehicle: water); 141 % of control (dose: 0.1 mg/kg/injection, schedule: Q01DX009 (ip), vehicle: water); 198 and 252 % of control (dose: 0.44 mg/kg/injection, schedule: Q01DX009 (ip), vehicle: water, evaluated on day 5); 198 and 252 % of control (dose: 0.44 mg/kg/injection, schedule: Q01DX009 (ip), vehicle: water, evaluated on day 97); 234 % of control (2×) (dose: 0.64 mg/kg/injection, schedule: Q01DX009 (ip), vehicle: water, evaluated on day 5). For the same compound, the T/C is 234 % of control (2×) (dose: 0.64 mg/kg/injection, schedule: Q01DX009 (ip), vehicle: water, evaluated on day 97); 270 and 360 % of control (dose: 0.66 mg/kg/injection, schedule: Q01DX009 (ip), vehicle: water, evaluated on day 5); 270 and 360 % of control (dose: 0.66 mg/kg/injection, schedule: Q01DX009 (ip), vehicle: water, evaluated on day 97); 252 and 270 % of control (dose: 0.84 mg/kg/injection, schedule: Q01DX009 (ip), vehicle: water, evaluated on day 5); 252 and 270 % of control (dose: 0.84 mg/kg/injection, schedule: Q01DX009 (ip), vehicle: water, evaluated on day 97); 243 and 288 % of control (dose: 0.96 mg/kg/injection, schedule: Q01DX009 (ip), vehicle: water, evaluated on day 5). The T/C (dose: 0.96 mg/kg/injection, schedule: Q01DX009 (ip), vehicle: water, evaluated on day 97) was 243 and 288 % of control; the T/C (dose: 1.26 mg/kg/injection, schedule: Q01DX009 (ip), vehicle: water, evaluated on day 5) is 243 and 349 % of control; the T/C (dose: 1.26 mg/kg/injection, schedule: Q01DX009 (ip), vehicle: water, evaluated on day 97) was 243 and 349 % of control. The survivor count reads like this: (dose: 0.8 mg/kg/injection, schedule: Q01DX009 (ip), vehicle: distilled water + Tween-80) 5 of 6; (dose: 0.8 mg/kg/injection, schedule: Q01DX009 (ip), vehicle: water) 6 of 6; (dose: 1.6 mg/kg/injection, schedule: Q01DX009 (ip), vehicle: distilled water + Tween-80) 2 of 6; (dose: 1.6 mg/kg/injection, schedule: Q01DX009 (ip), vehicle: water) 6 of 6.
Turning to `Nc1nc(Cl)c(C=O)c(Cl)n1`, the T/C runs as follows: (dose: 12.5 mg/kg/injection, schedule: Q01DX009 (ip), vehicle: saline with Tween-80) 125 % of control; (dose: 100.0 mg/kg/injection, schedule: Q01DX009 (ip), vehicle: saline with Tween-80) 127 % of control. Also, the survivor count under setting [2] is reported as 3 of 6.
With `CN=C(N)NN=C(c1ccccc1)c1ccccc1`, the survivor count by setting is: (dose: 200.0 mg/kg/injection, schedule: Q04DX002 (ip), vehicle: saline with Tween-80) 0 of 6; (dose: 400.0 mg/kg/injection, schedule: Q04DX002 (ip), vehicle: saline with Tween-80) 0 of 6.
For `O=C(Nc1ccc(N=C=S)cc1)c1cc(Br)cc(Br)c1O`, the survivor count (dose: 200.0 mg/kg/injection, schedule: Q01DX001 (ip), vehicle: Klucel (hydroxypropylcellulose) (HPC)) is on record as 0 of 6.
Take `Cc1cc2c(=O)cc(-c3ccccc3Cl)oc2c(C#N)c1C`: the survivor count is recorded as 6 of 6 (dose: 15.0 mg/kg/injection, schedule: Q01DX005 (ip), vehicle: Klucel (hydroxypropylcellulose) (HPC)); 6 of 6 (dose: 30.0 mg/kg/injection, schedule: Q01DX005 (ip), vehicle: Klucel (hydroxypropylcellulose) (HPC)); 6 of 6 (dose: 60.0 mg/kg/injection, schedule: Q01DX005 (ip), vehicle: Klucel (hydroxypropylcellulose) (HPC)); 5 of 6 (dose: 120.0 mg/kg/injection, schedule: Q01DX005 (ip), vehicle: Klucel (hydroxypropylcellulose) (HPC)).
